{"source": "PubChem BioAssay AID1259405 (NCATS, 2018)", "test": "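Knock-downs that lift recombinant protein yield in hamster ovary cells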 (primary screen)", "system": "Chinese hamster CHO-K1 ovary cells with stable secreted eGFP expression", "reagents": "single siRNA against mouse genes, 0.8 pmol siRNA per well (2 µl of 400 nM stock)", "time to read-out": "3 days", "read-out": "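Per-well intracellular GFP measured by laser scanning cytometry, plus viability from ATP luminescence, each relative to plate median of non-targeting control wells, in %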", "reading the numbers": "GFP, % of control: higher = more GFP per well, higher productivity; viability (ATP), % of control: higher = more viable cells (more ATP)", "call rule": "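Called active when intracellular GFP, relative to negative control, is at or above 120%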", "note": "This is an unselected part of about 50,000 reagents. Over the whole deposit, about 4,000 (8%) were called active. 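Mouse siRNA library applied to hamster cells; one well for each siRNA.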 The numbers tell different reagents against one gene apart. Reagent sequences are not shown."}
{"gene": "Mark3", "reagent": 1, "GFP, % of control": 85.7, "viability (ATP), % of control": 89.7, "call": "inactive"}
{"gene": "Mark3", "reagent": 2, "GFP, % of control": 74.4, "viability (ATP), % of control": 77, "call": "inactive"}
{"gene": "Xlr4b", "reagent": 1, "GFP, % of control": 51, "viability (ATP), % of control": 36.1, "call": "inactive"}
{"gene": "Xlr4b", "reagent": 2, "GFP, % of control": 81.8, "viability (ATP), % of control": 66.6, "call": "inactive"}
{"gene": "Xlr4b", "reagent": 3, "GFP, % of control": 50, "viability (ATP), % of control": 84.7, "call": "inactive"}
{"gene": "Anapc15", "reagent": 1, "GFP, % of control": 128, "viability (ATP), % of control": 70, "call": "active"}
{"gene": "Anapc15", "reagent": 2, "GFP, % of control": 24, "viability (ATP), % of control": 29.8, "call": "inactive"}
{"gene": "Anapc15", "reagent": 3, "GFP, % of control": 71.3, "viability (ATP), % of control": 84, "call": "inactive"}
{"gene": "Spry4", "reagent": 1, "GFP, % of control": 61.4, "viability (ATP), % of control": 88.8, "call": "inactive"}
{"gene": "Spry4", "reagent": 2, "GFP, % of control": 115, "viability (ATP), % of control": 95.4, "call": "inactive"}
{"gene": "Spry4", "reagent": 3, "GFP, % of control": 105, "viability (ATP), % of control": 130, "call": "inactive"}
{"gene": "Vgll2", "reagent": 1, "GFP, % of control": 46.9, "viability (ATP), % of control": 47.9, "call": "inactive"}
{"gene": "Vgll2", "reagent": 2, "GFP, % of control": 67.4, "viability (ATP), % of control": 58.1, "call": "inactive"}
{"gene": "Vgll2", "reagent": 3, "GFP, % of control": 87.3, "viability (ATP), % of control": 97.5, "call": "inactive"}
{"gene": "Rcc1", "reagent": 1, "GFP, % of control": 107, "viability (ATP), % of control": 81.1, "call": "inactive"}
{"gene": "Rcc1", "reagent": 2, "GFP, % of control": 122, "viability (ATP), % of control": 71.6, "call": "active"}
{"gene": "Rcc1", "reagent": 3, "GFP, % of control": 36.7, "viability (ATP), % of control": 43, "call": "inactive"}
{"gene": "Sh3bp5l", "reagent": 1, "GFP, % of control": 70.9, "viability (ATP), % of control": 74.3, "call": "inactive"}
{"gene": "Sh3bp5l", "reagent": 2, "GFP, % of control": 81.4, "viability (ATP), % of control": 76.1, "call": "inactive"}
{"gene": "Sh3bp5l", "reagent": 3, "GFP, % of control": 75.1, "viability (ATP), % of control": 89.5, "call": "inactive"}
{"gene": "Itpk1", "reagent": 1, "GFP, % of control": 65, "viability (ATP), % of control": 54.5, "call": "inactive"}
{"gene": "Itpk1", "reagent": 2, "GFP, % of control": 80, "viability (ATP), % of control": 59.1, "call": "inactive"}
{"gene": "Pbx3", "reagent": 1, "GFP, % of control": 104, "viability (ATP), % of control": 91.2, "call": "inactive"}
{"gene": "Pbx3", "reagent": 2, "GFP, % of control": 59.5, "viability (ATP), % of control": 75, "call": "inactive"}
{"gene": "Pbx3", "reagent": 3, "GFP, % of control": 71.9, "viability (ATP), % of control": 59.1, "call": "inactive"}
{"gene": "Fastkd1", "reagent": 1, "GFP, % of control": 133, "viability (ATP), % of control": 56.5, "call": "active"}
{"gene": "Fastkd1", "reagent": 2, "GFP, % of control": 113, "viability (ATP), % of control": 98.9, "call": "inactive"}
{"gene": "Fastkd1", "reagent": 3, "GFP, % of control": 122, "viability (ATP), % of control": 122, "call": "active"}
